According to the supplement of paper PMC5949888:
Most values lie at the floor of the assay. Slopes are relative: functional sequences can read slightly below zero.

tested on: Saccharomyces cerevisiae PS128 hsf1 delta, HSF1(1-493) fusion; assay: growth estimate (transactivation domain function in HSF1 fusion, heat-shock survival) (a.u. (slope of normalised read count over time)); higher = stronger growth at 37°C, i.e. more transactivation activity; details: library: random library

Substance	growth estimate
TKRSFRRI	< -0.25
TKRYLPW	< -0.25
TKTVISSTAG	-0.231
TKVNLANARPLRLIASIIVP	< -0.25
TKVYGCESLVTGCHFSPRPL	< -0.25
TLAAGRTARNPAASVQ	< -0.25
TLAAVSLGRLVESFSRQAGP	< -0.25
TLADHPTTQGY	< -0.25
TLAGPSQGLEYITSLSLEWR	< -0.25
TLAYRPSRPLESTDHA	< -0.25
TLCMRRRQASSSHRGDLVAA	< -0.25
TLCPPYICGAAYLTVTWCRE	< -0.25
TLCRNATTLYSGFRANVVLV	< -0.25
TLDAQERRPE	-0.221
TLDGCVKSTFPGPRPPKDDP	< -0.25
TLDGYLEVMSGFTLRVSPQP	< -0.25
TLDPVVFGPGKGQRVSLPKA	< -0.25
TLEANGRAVLVAGRFEALTP	< -0.25
TLEGGSQNYTTQPVA	< -0.25
TLEQEMGRETNIM	< -0.25
TLFNGAQGAS	< -0.25
TLFYLVHRADARTLLYSAAI	< -0.253
TLGHGNVMAEY	< -0.25
TLGSGTG	< -0.25
TLGVMTGYDSVLCDSVT	< -0.25

Substance	growth estimate
TLGVNLYLVIF	< -0.25
TLGYRHVGA	< -0.25
TLHLFLLKYNLEKSYAGTDL	< -0.25
TLHVERHIAGSHNITGLDRA	-0.198
TLIWPRKFGFLLFCVFGIWC	< -0.25
TLLHPISTEAAH	< -0.25
TLMREITLSIGGRTMVSMCP	< -0.25
TLMRPPSGYSK	< -0.25
TLNGQRTQR	< -0.25
TLNLVGNFFLCSWVLVYGGL	< -0.25
TLP	< -0.25
TLPFFYRWNYTSHQPGDPPV	< -0.25
TLQFHAQAWLSNASRAPRTP	< -0.25
TLQLGRTPGRCNVLGNCSKI	< -0.25
TLRAPS	< -0.25
TLRASVCVATPET	< -0.25
TLRGHCFPVLIRTRCLFGAA	< -0.25
TLRHLQLRRVKLISGRYPAR	< -0.25
TLRPRPNPGKN	< -0.25
TLSCEVRPYG	< -0.25
TLSNNAPKCPDPMASQGCAG	< -0.25
TLSPTKTCTFHCVVGCCCVG	< -0.25
TLSRTGAGVSHAHTGRSQGR	< -0.25
TLTCVGNRSQVPLELCTNTR	< -0.25
TLTGAIPRS	< -0.25

Substance	growth estimate
TLTLSSIERLRRFTPRSLGS	< -0.25
TLTNFSTMHHYFGAVRSPPR	< -0.25
TLTSSHRTIIICRQAIIQDS	< -0.25
TLVFADWQAGSPSIVVRPVT	< -0.25
TLVIASHARICAYTSDWNGG	-0.175
TLVNFLGMGAYPADVAGPGT	< -0.25
TLWWGVRLSTRVRKMAARRI	< -0.25
TLYCLMIKLEL	< -0.25
TMAVIPLRR	< -0.25
TMDADMEKHSGISDDFWAQN	< -0.25
TMERAIRTRRLLARTRPPTQ	< -0.25
TMFWK	< -0.25
TMGTADALEMQRGWVESMRI	< -0.25
TMKRCYRIL	< -0.25
TMNRNSIERSEQP	< -0.25
TMPPFGHLSLLKSWLKILSP	< -0.25
TMPSPMFSLEVATKRSRGLF	< -0.25
TMSTCLKREYHMPGGAC	< -0.25
TMTLVEFNSAQNFFIPILTV	< -0.25
TMVHHCIVGPSEGRRK	< -0.25
TMYKGHAMGSCAV	< -0.25
TNCDYLASGEDDRENHLLMR	< -0.25
TNDKWCGNCLAALS	< -0.25
TNDVAYHESARTAQEPDIQ	< -0.25
TNGGYRQG	< -0.25

Substance	growth estimate
TNIGSSY	< -0.25
TNIRMALGARQE	< -0.25
TNKDV	< -0.25
TNLLSHNFMIAILT	< -0.25
TNN	< -0.25
TNPCEF	< -0.25
TNPLHPFTLTGAE	< -0.25
TNRLRVEPRPTPNGTLSLVH	< -0.25
TNTS	-0.243
TNVRCAGVSVCHFPWTALAR	< -0.25
TPARAQSNITNFRSIGHQRK	< -0.25
TPARTRWEANIPGTGQSR	< -0.25
TPCWLRIVFGS	< -0.25
TPDHPAERVEGGGGEKKLER	< -0.25
TPDWYSCYKDAGSFGLTSRR	< -0.25
TPEDDCIEFGGIGIERSSKG	< -0.25
TPF	< -0.25
TPGLVHYR	< -0.25
TPIRRRPLFGTWGAYGVA	< -0.25
TPNRLTG	< -0.25
TPRVDSLPAYRLDYRTLL	< -0.25
TPSRSKQKVIKVNQICQAVV	< -0.25

Shown field by field: entries from further up.
TPCWLRIVFGS
  growth estimate: < -0.25
TPDHPAERVEGGGGEKKLER
  growth estimate: < -0.25
TPDWYSCYKDAGSFGLTSRR
  growth estimate: < -0.25
